Results are given in words; binding and its absence hold for the method and conditions named. Some binding calls cover weakened binding; strength is not graded here. Where a sequence is shown, tags or fusion partners need not be part of it.
Biological target: HPV16 E7 oncoprotein, full-length recombinant (HPV 16) (UniProt P03129)
Assay: SPR; BIAcoreX; E7 amine-coupled to a CM5 chip; GST-pRb injected at 0-400 nM, followed by scFv 43M2 at 200 nM, 20 ul/min; HBS-P (10 mM Hepes pH 7.4, 0.15 M NaCl, 0.005% P20), 25 C; both purified

Sequences of proteins named here, by UniProt entry; tags and fusion partners are left off.
UniProt P03129: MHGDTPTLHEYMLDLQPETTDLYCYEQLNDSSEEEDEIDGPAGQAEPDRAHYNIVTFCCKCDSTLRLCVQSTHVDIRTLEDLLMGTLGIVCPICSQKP

B1: GST-pRb fusion protein (retinoblastoma protein) (protein, UniProt P06400 1-928)
chain: MPPKTPRKTAATAAAAAAEPPAPPPPPPPEEDPEQDSGPEDLPLVRLEFEETEEPDFTALCQKLKIPDHVRERAWLTWEKVSSVDGVLGGYIQKKKELWGICIFIAAVDLDEMSFTFTELQKNIEISVHKFFNLLKEIDTSTKVDNAMSRLLKKYDVLFALFSKLERTCELIYLTQPSSSISTEINSALVLKVSWITFLLAKGEVLQMEDDLVISFQLMLCVLDYFIKLSPPMLLKEPYKTAVIPINGSPRTPRRGQNRSARIAKQLENDTRIIEVLCKEHECNIDEVKNVYFKNFIPFMNSLGLVTSNGLPEVENLSKRYEEIYLKNKDLDARLFLDHDKTLQTDSIDSFETQRTPRKSNLDEEVNVIPPHTPVRTVMNTIQQLMMILNSASDQPSENLISYFNNCTVNPKESILKRVKDIGYIFKEKFAKAVGQGCVEIGSQRYKLGVRLYYRVMESMLKSEEERLSIQNFSKLLNDNIFHMSLLACALEVVMATYSRSTSQNLDSGTDLSFPWILNVLNLKAFDFYKVIESFIKAEGNLTREMIKHLERCEHRIMESLAWLSDSPLFDLIKQSKDREGPTDHLESACPLNLPLQNNHTAADMYLSPVRSPKKKGSTTRVNSTANAETQATSAFQTQKPLKSTSLSLFYKKVYRLAYLRLNTLCERLLSEHPELEHIIWTLFQHTLQNEYELMRDRHLDQIMMCSMYGICKVKNIDLKFKIIVTAYKDLPHAVQETFKRVLIKEEEYDSIIVFYNSVFMQRLKTNILQYASTRPPTLSPIPHIPRSPYKFPSSPLRIPGGNIYISPLKSPYKISEGLPTPTKMTPRSRILVSIGESFGTSEKFQKINQMVCNSDRVLKRSAEGSNPPKPLKKLRFDIEGSDEADGSKHLPGESKFQQKLAEMTSTRTRMQKQKMNDSMDTSNKEEK
B1 was tested, and the binding was “binds”.

Source: publication PMC3032750
